Source: PubChem BioAssay AID912 (NCATS, 2007).

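Uptake of anthrax lethal toxin into cultured cells, read by FRET (460/530 nm ratio) and reported from the 460 nm channel; the cell line is not named here. Each compound was tested as a concentration series from about 0.0005 to 40 µM. The number is the fitted AC50 of the 460 nm signal alone; lower values mean a more potent effect. A falling signal goes with compounds filed as inhibitors or cytotoxic, a rising one with activators or fluorescent compounds (inferred from the filed classes).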

Values are in nM. Common to all entries: measured here: 460 nm channel. This is a side read-out of the assay, for part of the compounds, not drawn at random. A potency from a partial, single-point or poor curve is only a rough figure. The first word of each remark tells which way the curve ran; it can be opposite to the aim of the assay.

| structure | AC50 (nM) | curve |
|---|---|---|
| `COc1ccc(-c2[nH]c(-c3cccc(OC)c3)nc2SCC(=O)NCc2ccco2)cc1` | 3162 | falling, single point |
| `N#Cc1ccccc1NC(=O)CSc1nccn1CCc1ccccc1` | 5012 | falling, single point |
| `CNc1ccc(O)cc1` | 25118 | falling, partial curve |
| `N#Cc1nc(COc2ccc(Br)cc2)oc1NCCCn1ccnc1` | 15848 | falling, partial curve |
| `COc1ccccc1-c1nc(N(C)C)c2ccccc2n1` | 3162 | falling, partial curve |
| `CCOC(=O)N1CCN(c2nc(C)c3c(n2)CC(C)CC3=O)CC1` (stereo not shown) | 5012 | rising, single point |
| `O=C(Nc1ccccc1)Nc1ccc(S(=O)(=O)N2CCCCC2)cc1` | 6310 | falling, partial curve |
| `CCN1C(=O)/C(=C2\SC(N3CCCCC3)=NC2=O)c2ccccc21` | 5012 | rising, single point |
| `CCC(=O)Nc1ccc(S(=O)(=O)c2ccc(NC(=O)CC)cc2)cc1` | 3.981 | falling, full curve, poor fit |
| `CC(=O)Oc1ccc2c(C)c(CC(C)O)c(=O)oc2c1` (stereo not shown) | 12589 | rising, partial curve |
| `CCOC(=O)N1CCN(CC(=O)c2ccc3c(c2)CCN3)CC1` | 2512 | falling, single point |
| `CC1CCCC(C)N1C(=O)CN1C(=O)C(C)(C)Oc2ccc(C(=O)NC3CCCC3)cc21` (stereo not shown) | 15848 | rising, partial curve |
| `O=C(NCCc1c[nH]c2ccccc12)c1cc(S(=O)(=O)N2CCCCC2)ccc1N1CCOCC1` | 6310 | rising, partial curve |
| `CCOC(=O)C1CCN(c2c(N3CCCC(C(=O)OCC)C3)c(=O)c2=O)CC1` (stereo not shown) | 12589 | rising, single point |
| `Cc1ccccc1-c1nc(CN2CCC(C(=O)NCC3CCCO3)CC2)c(C)o1` (stereo not shown) | 79.43 | rising, full curve, poor fit |
| `COCCNc1ncnc2ccc(-c3ccoc3)cc12` | 5012 | rising, single point |
| `CCCOC(=O)c1ccc(O)cc1` | 794.3 | falling, full curve, poor fit |
| `Cc1ccc(NC2=Nc3ccccc3CS2)cc1` | 5012 | rising, single point |
| `Cc1ccc(-c2csc3ncnc(Sc4nnc(CN5CCCCCC5=O)o4)c23)cc1` | 10000 | falling, partial curve |
| `CCCCCCc1ccc(-c2ccc(C#N)cc2)cc1` | 10000 | falling, partial curve |
| `CCCC(CCC)n1[nH]c(=O)c2c(C)cc(C)nc21` | 3162 | rising, single point |
| `c1ccc(Cn2ncc3c2ncn2nc(-c4ccncc4)nc32)cc1` | 199.5 | rising, full curve, poor fit |
| `CC(C)CCNC(=O)CCS(=O)(=O)c1cccc2nonc12` | 5012 | rising, single point |
| `O=c1cc(CN2CCN(Cc3ccccc3)CC2)c2cc(Cl)ccc2o1` | 316.2 | rising, partial curve, poor fit |
| `Cc1ccc(C(=O)N2CCN(c3cccc(Cl)c3)CC2)cc1C` | 31622 | falling, single point |
| `O=C1c2ccccc2CC1Sc1nnc(-c2ccncc2)o1` (stereo not shown) | 2512 | rising, full curve |
| `Clc1cccc(-c2cc3nc4c(c(N5CCOCC5)n3n2)CCCC4)c1` | 12589 | falling, partial curve |
| `Cn1c(=O)c(C(=O)CN2CCCc3ccccc32)c(N)n(Cc2ccccc2)c1=O` | 5012 | rising, partial curve |
| `COc1ccccc1-c1nc(N(C)Cc2ccco2)c2ccccc2n1` | 31622 | falling, single point |
| `C=C1CC[C@@H](O)C/C1=C/C=C1\CCC[C@]2(C)[C@@H]1CC[C@H]2[C@@H](C)/C=C\[C@@H](C)C(C)C` | 25118 | falling, partial curve |
| `CSc1nc(N)nc(SCC(=O)c2ccccc2)c1C#N` | 25.12 | falling, full curve, poor fit |
| `Clc1ccccc1CNCC1CCC(CNCc2ccccc2Cl)CC1` (stereo not shown) | 6310 | falling, partial curve |
| `S=C(c1ccc(-c2ccc(Cl)c(Cl)c2)o1)N1CCOCC1` | 12589 | falling, partial curve |
| `CCOC(=O)C1CCN(C(=O)CSc2ccccc2)CC1` | 25118 | rising, single point |
| `CCOCCCN1C(=O)CN(C2CCCCCC2)C(=O)C1c1ccc(OC)cc1` (stereo not shown) | 1585 | rising, full curve |
| `Nc1ccc(N2CCN(Cc3ccccc3Cl)CC2)c(Cl)c1` | 10000 | falling, partial curve |
| `COc1ccc(CC(=O)Nc2cccc(-c3nnc(-c4ccc(C)cc4)o3)c2)cc1OC` | 3162 | falling, full curve |
| `CC(=O)c1cccc(NC(=O)c2cccc(S(=O)(=O)N(C)C)c2)c1` | 31.62 | falling, full curve, poor fit |
| `CCCCn1c2c(c3ccccc31)CCc1nonc1-2` | 10000 | falling, partial curve |
| `Cc1cccc(S(=O)(=O)c2c(N)n(/N=C/c3ccco3)c3nc4ccccc4nc23)c1` | 7943 | rising, partial curve |
| `O=C(NCc1ccccc1)c1cc(S(=O)(=O)N2CCOCC2)ccc1F` | 12589 | rising, single point |
| `COc1ccc(CC[n+]2cc(/N=C(\C)[O-])on2)cc1OC` | 15848 | falling, partial curve, poor fit |
| `NS(=O)(=O)c1nc(S(=O)(=O)O)c2[nH]cnc2n1` | 5012 | rising, single point |
| `CC(C)C1=CC2=CC[C@H]3[C@@](C)(CCC[C@]3(C)C(=O)O)[C@@H]2CC1` | 31622 | falling, partial curve, poor fit |
| `N#Cc1c(NC(=O)COC(=O)C2CC3C=CC2C3)oc(-c2ccccc2)c1-c1ccccc1` (stereo not shown) | 501.2 | falling, full curve |
| `Cc1ccc(C)c2nc(N3CCCC3)c(C#N)cc12` | 25118 | rising, single point |
| `O=C1CCCc2nc(N3CCN(Cc4ccccc4)CC3)ncc21` | 12589 | rising, single point |
| `COc1ccc(C(=O)N/N=C2/C(=O)c3c(C)cc(C)cc3CC2(C)C)cc1` | 3981 | falling, single point |
| `Cc1cccn2c(=O)c3cc(C#N)c(=NC(=O)c4cccnc4)n(CC4CCCO4)c3nc12` (stereo not shown) | 1585 | rising, partial curve |

The first 6 entries again:

structure,AC50 (nM),curve
COc1ccc(-c2[nH]c(-c3cccc(OC)c3)nc2SCC(=O)NCc2ccco2)cc1,3162,"falling, single point"
N#Cc1ccccc1NC(=O)CSc1nccn1CCc1ccccc1,5012,"falling, single point"
CNc1ccc(O)cc1,25118,"falling, partial curve"
N#Cc1nc(COc2ccc(Br)cc2)oc1NCCCn1ccnc1,15848,"falling, partial curve"
COc1ccccc1-c1nc(N(C)C)c2ccccc2n1,3162,"falling, partial curve"
CCOC(=O)N1CCN(c2nc(C)c3c(n2)CC(C)CC3=O)CC1 (stereo not shown),5012,"rising, single point"